In this test the target is membralin-myc (mouse) (UniProt Q8CIV2). Put plainly: co-IP; membralin-myc and Erlin2-HA co-transfected in HEK 293 cells (legend: HEK 293T); lysates collected 48 hr after transfection; immunoprecipitated with anti-Myc or IgG (negative control), immunoblotted with anti-Erlin2.

The chains behind the UniProt entries cited, without tags or fusion partners.
UniProt Q8CIV2: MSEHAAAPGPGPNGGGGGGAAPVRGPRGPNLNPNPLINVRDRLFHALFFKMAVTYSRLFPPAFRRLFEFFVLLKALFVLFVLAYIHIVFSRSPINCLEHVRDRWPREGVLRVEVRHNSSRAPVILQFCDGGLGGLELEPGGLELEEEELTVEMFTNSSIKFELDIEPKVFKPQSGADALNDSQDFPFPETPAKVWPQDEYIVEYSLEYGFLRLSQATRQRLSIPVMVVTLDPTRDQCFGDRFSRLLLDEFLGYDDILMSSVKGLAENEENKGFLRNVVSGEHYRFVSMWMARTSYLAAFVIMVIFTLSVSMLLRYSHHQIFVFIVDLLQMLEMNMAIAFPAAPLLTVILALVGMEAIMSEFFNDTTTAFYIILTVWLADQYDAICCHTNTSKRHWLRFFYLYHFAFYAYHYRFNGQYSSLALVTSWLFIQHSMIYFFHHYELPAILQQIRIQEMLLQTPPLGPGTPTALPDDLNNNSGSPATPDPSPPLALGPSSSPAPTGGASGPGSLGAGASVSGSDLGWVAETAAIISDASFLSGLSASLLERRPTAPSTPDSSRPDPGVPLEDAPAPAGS

These are yes or no findings as the source states them, for the method shown. Binding seen in cells or lysates may run through a third protein. Some binding calls cover weakened binding; strength is not graded here. Sequences can lack the tags named with a protein.

B1: Erlin2-HA (protein, UniProt Q8BFZ9 1-340)
chain: MAQLGAVVAVASSFFCASLFSAVHKIEEGHIGVYYRGGALLTSTSGPGFHLMLPFITSYKSVQTTLQTDEVKNVPCGTSGGVMIYFDRIEVVNFLVPNAVYDIVKNYTADYDKALIFNKIHHELNQFCSVHTLQEVYIELFDQIDENLKLALQQDLTSMAPGLVIQAVRVTKPNIPEAIRRNYELMESEKTKLLIAAQKQKVVEKEAETERKKALIEAEKVAQVAEITYGQKVMEKETEKKISEIEDAAFLAREKAKADAECYTALKIAEANKLKLTPEYLQLMKYKAIASNSKIYFGKDIPNMFMDSAGGLGKQFEGLSDDKLGFGLEDEPLEAPTKEN
Consider B1, for which the binding entry is “binds”.

Values taken from PMC4460860.
